Laboratory results from US20240376224A1 (University of California, published 2024).
Results are given in words; binding and its absence hold for the method and conditions named. For some of these results: Binding seen in cells or lysates may run through a third protein. Some binding calls cover weakened binding; strength is not graded here. For some of these results: Sequences can lack the tags named with a protein. Each block holds one molecule with its values, some of them ahead of it.

How the values were obtained:
[1] = target: T1, NTF of endogenous cleaved CDCP1 of PDAC cells (human) (UniProt Q9H5V8); assay: co-immunoprecipitation from PDAC cell lysates with IgG 4A06, blot
T1 sequence: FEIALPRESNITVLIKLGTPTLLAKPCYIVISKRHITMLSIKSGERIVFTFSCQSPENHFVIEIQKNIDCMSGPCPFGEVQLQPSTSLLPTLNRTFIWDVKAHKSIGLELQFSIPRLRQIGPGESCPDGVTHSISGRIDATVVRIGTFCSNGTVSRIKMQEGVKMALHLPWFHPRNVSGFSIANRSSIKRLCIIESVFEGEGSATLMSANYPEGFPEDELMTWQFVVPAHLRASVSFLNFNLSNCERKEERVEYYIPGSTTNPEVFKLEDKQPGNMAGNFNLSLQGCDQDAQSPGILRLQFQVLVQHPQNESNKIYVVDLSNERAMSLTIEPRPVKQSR

[2] = target: T1, NTF of endogenous cleaved CDCP1 of PDAC cells (human); assay: co-immunoprecipitation with IgG 4A06, western blot with CDCP1 (D1W9N)
[3] = target: T2, CTF-Fc of recombinant mouse c-CDCP1-Fc (mouse) (UniProt Q5U462); assay: SEC of mouse fl-CDCP1-Fc, c-CDCP1-Fc (Cut 1) and c-CDCP1-Fc (Cut 2)
T2 sequence: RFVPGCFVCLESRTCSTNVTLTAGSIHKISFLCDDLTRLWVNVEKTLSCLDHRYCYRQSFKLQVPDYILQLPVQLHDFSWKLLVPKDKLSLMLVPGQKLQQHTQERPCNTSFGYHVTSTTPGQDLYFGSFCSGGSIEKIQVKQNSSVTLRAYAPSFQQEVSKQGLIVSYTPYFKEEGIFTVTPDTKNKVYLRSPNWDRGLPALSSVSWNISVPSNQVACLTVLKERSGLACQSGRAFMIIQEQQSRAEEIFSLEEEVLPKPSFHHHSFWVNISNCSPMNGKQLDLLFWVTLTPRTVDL

[4] = target: T3, CTF-Fc of thrombin-cleaved CDCP1(Tx)-Fc (human) (UniProt Q9H5V8); assay: thrombin cleavage of CDCP1(Tx)-Fc; SDS-PAGE, BLI and SEC
T3 sequence: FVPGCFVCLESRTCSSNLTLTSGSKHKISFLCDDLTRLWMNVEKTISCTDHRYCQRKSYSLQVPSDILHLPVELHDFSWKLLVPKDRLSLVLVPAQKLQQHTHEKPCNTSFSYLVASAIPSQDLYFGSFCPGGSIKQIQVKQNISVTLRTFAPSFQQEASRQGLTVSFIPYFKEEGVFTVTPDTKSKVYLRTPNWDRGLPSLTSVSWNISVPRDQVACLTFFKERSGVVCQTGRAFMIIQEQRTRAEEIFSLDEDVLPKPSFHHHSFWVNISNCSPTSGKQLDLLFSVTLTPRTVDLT

binding [1]: binds
binding [2]: binds
Molecule: CTF of endogenous cleaved CDCP1 of PDAC cells (from UniProt Q9H5V8 369-836) (receptor)

binding [3]: binds
B1: NTF of recombinant mouse c-CDCP1-Fc (receptor)
chain: SEIALPQRSGVTVSIKLGNPALPVKICYIVMSRQHITELIIRPGERKSFTFSCSNPEKHFVLKIEKNIDCMSGPCPFGEVHLQPSTSELPILNRTFIWDVRAHKSIGLELQFATPRLRQIGPGESCADGVTHSISGHIDATEVRIGTFCSNGTVSRIKMQEGVKMALHLPWFHRRNVSGFSIANRSSIKRLCIIESVFEGEGSATLMSANYPGGFPEDELMTWQFVVPAHLRASVSFLNFNVSNCERKEERVEYYIPGSTTNPEVFRLEDKQPGNMAGNFNLSLQGCDQDAQSPGILRLQFQVLVQRPQDESNKTYMVDLSRERTMSLTIEPRPVKHGR

binding [4]: binds
B2: NTF of thrombin-cleaved CDCP1(Tx)-Fc (receptor)
chain: FEIALPRESNITVLIKLGTPTLLAKPCYIVISKRHITMLSIKSGERIVFTFSCQSPENHFVIEIQKNIDCMSGPCPFGEVQLQPSTSLLPTLNRTFIWDVKAHKSIGLELQFSIPRLRQIGPGESCPDGVTHSISGRIDATVVRIGTFCSNGTVSRIKMQEGVKMALHLPWFHPRNVSGFSIANRSSIKRLCIIESVFEGEGSATLMSANYPEGFPEDELMTWQFVVPAHLRASVSFLNFNLSNCERKEERVEYYIPGSTTNPEVFKLEDKQPGNMAGNFNLSLQGCDQDAQSPGILRLQFQVLVQHPQNESNKIYVVDLSNERAMSLTIEPRPVKQS
